# Test results from article PMC5142333.
# Sequences of proteins named here, by UniProt entry; tags and fusion partners are left off.
# UniProt P46934: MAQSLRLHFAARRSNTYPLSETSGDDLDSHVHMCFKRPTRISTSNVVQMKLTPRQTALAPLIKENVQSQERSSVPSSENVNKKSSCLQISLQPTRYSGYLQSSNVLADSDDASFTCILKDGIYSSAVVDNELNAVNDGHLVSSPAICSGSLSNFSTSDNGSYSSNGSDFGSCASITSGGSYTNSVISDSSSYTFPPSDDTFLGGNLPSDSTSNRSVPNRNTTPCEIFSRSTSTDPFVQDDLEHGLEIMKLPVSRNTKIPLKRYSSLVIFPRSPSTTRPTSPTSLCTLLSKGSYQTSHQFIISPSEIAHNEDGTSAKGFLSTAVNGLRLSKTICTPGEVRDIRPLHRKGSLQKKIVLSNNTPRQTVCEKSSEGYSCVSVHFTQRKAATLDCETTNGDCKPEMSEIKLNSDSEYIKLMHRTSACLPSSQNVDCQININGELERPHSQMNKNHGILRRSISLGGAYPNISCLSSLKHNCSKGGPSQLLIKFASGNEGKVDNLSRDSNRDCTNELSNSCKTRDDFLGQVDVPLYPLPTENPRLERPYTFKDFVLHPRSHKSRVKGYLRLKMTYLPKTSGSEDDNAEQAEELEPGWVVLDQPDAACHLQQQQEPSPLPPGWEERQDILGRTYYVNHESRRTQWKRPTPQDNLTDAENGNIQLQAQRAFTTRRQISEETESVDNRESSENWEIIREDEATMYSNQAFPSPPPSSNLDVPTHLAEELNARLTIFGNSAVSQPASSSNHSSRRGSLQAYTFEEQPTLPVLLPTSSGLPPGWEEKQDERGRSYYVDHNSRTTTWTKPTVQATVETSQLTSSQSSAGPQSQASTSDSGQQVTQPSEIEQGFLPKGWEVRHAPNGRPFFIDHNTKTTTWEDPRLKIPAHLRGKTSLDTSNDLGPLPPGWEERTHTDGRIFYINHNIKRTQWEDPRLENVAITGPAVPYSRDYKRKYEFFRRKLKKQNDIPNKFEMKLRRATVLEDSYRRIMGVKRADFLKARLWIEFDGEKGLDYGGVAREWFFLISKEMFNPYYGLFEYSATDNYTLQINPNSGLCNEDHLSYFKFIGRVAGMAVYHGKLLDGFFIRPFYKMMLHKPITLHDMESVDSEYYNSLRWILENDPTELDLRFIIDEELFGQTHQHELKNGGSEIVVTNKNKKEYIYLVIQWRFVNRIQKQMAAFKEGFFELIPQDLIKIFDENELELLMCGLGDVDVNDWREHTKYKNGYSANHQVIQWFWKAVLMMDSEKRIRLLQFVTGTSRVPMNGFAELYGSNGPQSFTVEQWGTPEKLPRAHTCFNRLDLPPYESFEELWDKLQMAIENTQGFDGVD
# Results are given in words; binding and its absence hold for the method and conditions named. Binding seen in cells or lysates may run through a third protein. Some binding calls cover weakened binding; strength is not graded here. Where a sequence is shown, tags or fusion partners need not be part of it.
# Target: T1, GST-LITAF 1–77 (human) (UniProt Q99732)
# T1 sequence: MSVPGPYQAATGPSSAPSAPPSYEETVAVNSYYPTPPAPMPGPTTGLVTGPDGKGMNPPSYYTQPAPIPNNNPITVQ
# Assay: pull-down; GST-LITAF 1–77 constructs (0.2 mg/mL) added to precleared RPE cell lysate (20 mM HEPES pH 7.4, 150 mM NaCl, 1 mM EDTA, 0.5% Triton X-100), 2 h at 4 °C, captured on glutathione sepharose 4B; western blot for NEDD4; only the target purified
substance,measurement,value
"NEDD4 (endogenous, RPE cell lysate) (from UniProt P46934 1-1319)",binding,binds
